{
  "source": "paper PMC5109252",
  "binders": {"B1": {"name": "endogenous SETD3 (whole cell lysate, cells not named) (enzyme, UniProt Q86TU7 1-594)", "chain": "MGKKSRVKTQKSGTGATATVSPKEILNLTSELLQKCSSPAPGPGKEWEEYVQIRTLVEKIRKKQKGLSVTFDGKREDYFPDLMKWASENGASVEGFEMVNFKEEGFGLRATRDIKAEELFLWVPRKLLMTVESAKNSVLGPLYSQDRILQAMGNIALAFHLLCERASPNSFWQPYIQTLPSEYDTPLYFEEDEVRYLQSTQAIHDVFSQYKNTARQYAYFYKVIQTHPHANKLPLKDSFTYEDYRWAVSSVMTRQNQIPTEDGSRVTLALIPLWDMCNHTNGLITTGYNLEDDRCECVALQDFRAGEQIYIFYGTRSNAEFVIHSGFFFDNNSHDRVKIKLGVSKSDRLYAMKAEVLARAGIPTSSVFALHFTEPPISAQLLAFLRVFCMTEEELKEHLLGDSAIDRIFTLGNSEFPVSWDNEVKLWTFLEDRASLLLKTYKTTIEEDKSVLKNHDLSVRAKMAIKLRLGEKEILEKAVKSAAVNREYYRQQMEEKAPLPKYEESNLGLLESSVGDSRLPLVLRNLEEEAGVQDALNIREAISKAKATENGLVNGENSIPNGTRSENESLNQESKRAVEDAKGSSSDSTAGVKE"}, "B2": {"name": "HA-SETD3 (enzyme, UniProt Q86TU7 1-594)", "chain": "MGKKSRVKTQKSGTGATATVSPKEILNLTSELLQKCSSPAPGPGKEWEEYVQIRTLVEKIRKKQKGLSVTFDGKREDYFPDLMKWASENGASVEGFEMVNFKEEGFGLRATRDIKAEELFLWVPRKLLMTVESAKNSVLGPLYSQDRILQAMGNIALAFHLLCERASPNSFWQPYIQTLPSEYDTPLYFEEDEVRYLQSTQAIHDVFSQYKNTARQYAYFYKVIQTHPHANKLPLKDSFTYEDYRWAVSSVMTRQNQIPTEDGSRVTLALIPLWDMCNHTNGLITTGYNLEDDRCECVALQDFRAGEQIYIFYGTRSNAEFVIHSGFFFDNNSHDRVKIKLGVSKSDRLYAMKAEVLARAGIPTSSVFALHFTEPPISAQLLAFLRVFCMTEEELKEHLLGDSAIDRIFTLGNSEFPVSWDNEVKLWTFLEDRASLLLKTYKTTIEEDKSVLKNHDLSVRAKMAIKLRLGEKEILEKAVKSAAVNREYYRQQMEEKAPLPKYEESNLGLLESSVGDSRLPLVLRNLEEEAGVQDALNIREAISKAKATENGLVNGENSIPNGTRSENESLNQESKRAVEDAKGSSSDSTAGVKE"}, "B3": {"name": "endogenous FoxM1 (HEK-293T chromatin fraction) (protein, UniProt Q08050 1-763)", "chain": "MKTSPRRPLILKRRRLPLPVQNAPSETSEEEPKRSPAQQESNQAEASKEVAESNSCKFPAGIKIINHPTMPNTQVVAIPNNANIHSIITALTAKGKESGSSGPNKFILISCGGAPTQPPGLRPQTQTSYDAKRTEVTLETLGPKPAARDVNLPRPPGALCEQKRETCADGEAAGCTINNSLSNIQWLRKMSSDGLGSRSIKQEMEEKENCHLEQRQVKVEEPSRPSASWQNSVSERPPYSYMAMIQFAINSTERKRMTLKDIYTWIEDHFPYFKHIAKPGWKNSIRHNLSLHDMFVRETSANGKVSFWTIHPSANRYLTLDQVFKPLDPGSPQLPEHLESQQKRPNPELRRNMTIKTELPLGARRKMKPLLPRVSSYLVPIQFPVNQSLVLQPSVKVPLPLAASLMSSELARHSKRVRIAPKVLLAEEGIAPLSSAGPGKEEKLLFGEGFSPLLPVQTIKEEEIQPGEEMPHLARPIKVESPPLEEWPSPAPSFKEESSHSWEDSSQSPTPRPKKSYSGLRSPTRCVSEMLVIQHRERRERSRSRRKQHLLPPCVDEPELLFSEGPSTSRWAAELPFPADSSDPASQLSYSQEVGGPFKTPIKETLPISSTPSKSVLPRTPESWRLTPPAKVGGLDFSPVQTSQGASDPLPDPLGLMDLSTTPLQSAPPLESPQRLLSSEPLDLISVPFGNSSPSDIDVPKPGSPEPQVSGLAANRSLTEGLVLDTMNDSLSKILLDISFPGLDEDPLGPDNINWSQFIPELQ"}},
  "key": {"[1]": {"target": "T1, endogenous FoxM1 (whole cell lysate, cells not named) (human (endogenous; all cell lines of the paper are human)) (UniProt Q08050)", "T1 sequence": "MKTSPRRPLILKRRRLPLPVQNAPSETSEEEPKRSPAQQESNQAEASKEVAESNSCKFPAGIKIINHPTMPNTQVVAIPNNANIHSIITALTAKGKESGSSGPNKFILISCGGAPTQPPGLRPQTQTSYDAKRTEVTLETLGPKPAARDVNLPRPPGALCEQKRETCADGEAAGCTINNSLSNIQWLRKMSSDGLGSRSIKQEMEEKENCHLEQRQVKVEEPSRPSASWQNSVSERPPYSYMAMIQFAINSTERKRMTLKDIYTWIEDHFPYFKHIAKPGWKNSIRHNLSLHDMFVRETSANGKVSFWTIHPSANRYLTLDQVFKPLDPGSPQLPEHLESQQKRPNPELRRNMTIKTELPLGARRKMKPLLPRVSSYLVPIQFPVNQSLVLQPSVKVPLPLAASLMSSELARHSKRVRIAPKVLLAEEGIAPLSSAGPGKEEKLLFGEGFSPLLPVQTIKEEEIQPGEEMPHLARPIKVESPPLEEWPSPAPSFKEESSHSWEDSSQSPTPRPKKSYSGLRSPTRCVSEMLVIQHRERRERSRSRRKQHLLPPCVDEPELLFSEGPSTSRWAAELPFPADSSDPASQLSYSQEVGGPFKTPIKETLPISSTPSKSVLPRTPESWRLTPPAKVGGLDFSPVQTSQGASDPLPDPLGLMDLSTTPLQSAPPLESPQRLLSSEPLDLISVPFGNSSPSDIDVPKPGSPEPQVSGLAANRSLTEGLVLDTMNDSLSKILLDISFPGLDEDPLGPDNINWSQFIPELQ", "experiment": "co-IP; endogenous proteins; cells lysed in RIPA buffer; pre-cleared lysate incubated overnight at 4 C with FoxM1 antibody on protein A/G beads or beads only as control; western blot"}, "FLAG-FoxM1": {"target": "T2, FLAG-FoxM1 (UniProt Q08050)", "T2 sequence": "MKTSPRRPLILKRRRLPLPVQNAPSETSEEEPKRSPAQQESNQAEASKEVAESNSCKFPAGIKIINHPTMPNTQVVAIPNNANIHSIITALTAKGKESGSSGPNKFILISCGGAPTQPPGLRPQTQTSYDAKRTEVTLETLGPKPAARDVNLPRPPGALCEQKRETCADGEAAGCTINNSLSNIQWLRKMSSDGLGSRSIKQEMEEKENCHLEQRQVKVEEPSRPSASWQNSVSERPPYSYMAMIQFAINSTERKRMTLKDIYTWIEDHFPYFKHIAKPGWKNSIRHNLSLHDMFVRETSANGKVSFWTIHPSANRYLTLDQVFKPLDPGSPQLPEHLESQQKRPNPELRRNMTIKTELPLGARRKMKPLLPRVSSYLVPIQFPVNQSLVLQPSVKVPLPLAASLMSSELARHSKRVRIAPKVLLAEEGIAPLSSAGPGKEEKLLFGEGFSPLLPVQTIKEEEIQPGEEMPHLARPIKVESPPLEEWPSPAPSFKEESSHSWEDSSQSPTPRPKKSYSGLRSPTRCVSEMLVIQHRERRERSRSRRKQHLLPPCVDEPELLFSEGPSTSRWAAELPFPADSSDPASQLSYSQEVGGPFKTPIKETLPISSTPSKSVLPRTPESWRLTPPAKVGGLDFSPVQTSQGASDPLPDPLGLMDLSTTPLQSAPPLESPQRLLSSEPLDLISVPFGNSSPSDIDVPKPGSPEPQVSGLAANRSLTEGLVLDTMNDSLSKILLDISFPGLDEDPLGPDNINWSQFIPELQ", "experiment": "co-IP; protein-protein ChIP: transfected HEK-293T cells cross-linked, soluble chromatin fraction immunoprecipitated with FLAG M2 beads, western blot; empty plasmid as control; normoxic and hypoxic conditions (Fig. 7A)"}, "FLAG-SETD3": {"target": "T3, FLAG-SETD3 (UniProt Q86TU7)", "T3 sequence": "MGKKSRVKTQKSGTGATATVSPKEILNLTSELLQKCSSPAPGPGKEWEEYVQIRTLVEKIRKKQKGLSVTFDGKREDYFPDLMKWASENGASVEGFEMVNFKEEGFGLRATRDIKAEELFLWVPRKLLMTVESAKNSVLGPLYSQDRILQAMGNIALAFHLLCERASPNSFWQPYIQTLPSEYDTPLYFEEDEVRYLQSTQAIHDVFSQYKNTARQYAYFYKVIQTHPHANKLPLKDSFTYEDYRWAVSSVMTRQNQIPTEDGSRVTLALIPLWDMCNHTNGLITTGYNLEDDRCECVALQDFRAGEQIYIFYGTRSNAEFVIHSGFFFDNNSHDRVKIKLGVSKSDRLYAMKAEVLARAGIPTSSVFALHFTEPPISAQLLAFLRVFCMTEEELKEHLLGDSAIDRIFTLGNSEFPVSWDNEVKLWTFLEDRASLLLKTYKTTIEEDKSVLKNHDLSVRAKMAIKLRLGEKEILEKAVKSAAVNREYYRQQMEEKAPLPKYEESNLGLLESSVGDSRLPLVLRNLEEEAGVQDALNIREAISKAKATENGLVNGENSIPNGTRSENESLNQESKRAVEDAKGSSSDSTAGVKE", "experiment": "co-IP; protein-protein ChIP: transfected HEK-293T cells cross-linked, soluble chromatin fraction immunoprecipitated with FLAG M2 beads, western blot; empty plasmid as control; normoxic and hypoxic conditions (Fig. 7A)"}},
  "note": "Results are given in words; binding and its absence hold for the method and conditions named. In cells and extracts the contact can be indirect. Some binding calls cover weakened binding; strength is not graded here. For part of these data: Tags and fused reporters may be left off the sequences shown.",
  "data": [
    {"binder": "B1", "values": [
      {"measurement": "binding", "setting": "[1]", "value": "binds"}
    ]},
    {"binder": "B2", "values": [
      {"measurement": "binding", "setting": "FLAG-FoxM1", "value": "binds"}
    ]},
    {"binder": "B3", "values": [
      {"measurement": "binding", "setting": "FLAG-SETD3", "value": "binds"}
    ]}
  ]
}
